Test results reported in the supplement of paper PMC10849652.
This is one part of the list.

Amino acid sequences for entries named in this document (tags omitted). A change or cut given only in a name is not applied to a line headed by its entry.
UniProt Q9BU76: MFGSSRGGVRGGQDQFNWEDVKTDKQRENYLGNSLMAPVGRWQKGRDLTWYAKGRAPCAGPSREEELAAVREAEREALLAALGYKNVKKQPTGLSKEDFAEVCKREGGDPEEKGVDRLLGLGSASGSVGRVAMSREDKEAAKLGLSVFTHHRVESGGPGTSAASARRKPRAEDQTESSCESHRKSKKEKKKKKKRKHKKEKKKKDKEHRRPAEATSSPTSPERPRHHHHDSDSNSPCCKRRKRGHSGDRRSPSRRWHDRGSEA
UniProt Q9H3L0: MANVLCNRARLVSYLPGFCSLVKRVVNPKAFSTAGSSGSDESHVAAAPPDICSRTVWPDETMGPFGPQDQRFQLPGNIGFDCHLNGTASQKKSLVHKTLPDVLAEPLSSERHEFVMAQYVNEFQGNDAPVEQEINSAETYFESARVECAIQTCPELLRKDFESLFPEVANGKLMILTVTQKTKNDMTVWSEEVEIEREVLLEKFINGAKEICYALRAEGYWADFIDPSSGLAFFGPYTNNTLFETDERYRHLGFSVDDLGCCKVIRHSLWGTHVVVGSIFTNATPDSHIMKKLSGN
UniProt Q99547: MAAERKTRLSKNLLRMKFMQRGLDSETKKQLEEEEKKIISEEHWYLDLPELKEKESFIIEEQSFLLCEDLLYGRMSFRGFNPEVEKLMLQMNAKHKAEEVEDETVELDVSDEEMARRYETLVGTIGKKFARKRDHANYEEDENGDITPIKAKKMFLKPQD
UniProt Q6WCQ1: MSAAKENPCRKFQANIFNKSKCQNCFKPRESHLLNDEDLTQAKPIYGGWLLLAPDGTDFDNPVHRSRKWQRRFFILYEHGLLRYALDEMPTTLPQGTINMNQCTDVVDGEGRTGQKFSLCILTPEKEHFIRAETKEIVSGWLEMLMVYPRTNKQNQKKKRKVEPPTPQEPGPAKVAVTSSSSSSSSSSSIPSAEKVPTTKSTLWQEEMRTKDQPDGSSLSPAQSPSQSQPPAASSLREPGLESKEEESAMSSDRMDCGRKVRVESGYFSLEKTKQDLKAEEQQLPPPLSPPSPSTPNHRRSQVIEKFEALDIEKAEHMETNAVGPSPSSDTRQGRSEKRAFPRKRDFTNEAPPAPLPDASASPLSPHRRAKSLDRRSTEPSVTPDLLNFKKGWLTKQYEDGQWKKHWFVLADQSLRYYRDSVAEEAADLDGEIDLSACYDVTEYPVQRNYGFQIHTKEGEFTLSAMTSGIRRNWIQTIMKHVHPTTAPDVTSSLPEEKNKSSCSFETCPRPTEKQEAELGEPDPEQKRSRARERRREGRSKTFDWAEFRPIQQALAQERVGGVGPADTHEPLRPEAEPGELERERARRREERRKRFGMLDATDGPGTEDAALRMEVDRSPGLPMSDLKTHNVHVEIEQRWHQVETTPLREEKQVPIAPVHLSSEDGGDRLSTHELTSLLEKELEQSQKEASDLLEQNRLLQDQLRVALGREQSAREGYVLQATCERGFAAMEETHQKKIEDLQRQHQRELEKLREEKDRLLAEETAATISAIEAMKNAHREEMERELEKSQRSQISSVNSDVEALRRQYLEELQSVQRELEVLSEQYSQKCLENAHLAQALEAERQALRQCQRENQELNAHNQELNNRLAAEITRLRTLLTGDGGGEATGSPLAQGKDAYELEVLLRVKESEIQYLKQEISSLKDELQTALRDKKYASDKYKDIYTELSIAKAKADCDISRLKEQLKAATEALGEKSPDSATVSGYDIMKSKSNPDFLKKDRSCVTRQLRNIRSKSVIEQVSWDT
UniProt Q99583: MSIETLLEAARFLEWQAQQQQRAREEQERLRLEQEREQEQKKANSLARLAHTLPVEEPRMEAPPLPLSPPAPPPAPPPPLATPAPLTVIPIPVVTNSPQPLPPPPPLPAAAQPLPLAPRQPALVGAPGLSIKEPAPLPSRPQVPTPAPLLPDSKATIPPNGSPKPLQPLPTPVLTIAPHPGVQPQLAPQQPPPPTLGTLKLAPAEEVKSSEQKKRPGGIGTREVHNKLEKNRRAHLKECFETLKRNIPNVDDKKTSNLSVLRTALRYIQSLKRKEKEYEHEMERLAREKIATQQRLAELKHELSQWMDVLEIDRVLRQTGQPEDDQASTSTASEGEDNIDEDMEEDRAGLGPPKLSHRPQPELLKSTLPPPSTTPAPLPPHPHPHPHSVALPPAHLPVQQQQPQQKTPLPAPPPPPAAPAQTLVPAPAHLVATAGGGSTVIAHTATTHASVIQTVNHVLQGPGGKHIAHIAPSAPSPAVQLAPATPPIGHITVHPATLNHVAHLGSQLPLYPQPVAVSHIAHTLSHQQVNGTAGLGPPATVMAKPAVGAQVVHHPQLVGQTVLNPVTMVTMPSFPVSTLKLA

Legend:
Assay in all cases: log2 fold change, soluble protein after heating vs DMSO (PISA); higher = thermal stabilisation; K562 cells, 10 uM, 30 min; active = over 0.2 and 3.5 SD of the protein, either way, in both replicates (recomputed)
[1] = compound: Cc1ccc(NC(=O)c2ccc(CN3CC[C@H](N(C)C)C3)c(C(F)(F)F)c2)cc1Nc1nccc(-c2cncnc2)n1 [bafetinib]
Procedure, shortened: (§1)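 K562 cells at 2×10^6 cells/mL were given 10 μM compound for 30 min. Aliquots then went through 3 min of heating across 48°C-58°C, were pooled, and were extracted in PBS with 0.5% NP-40 at 4°C, and the supernatant after 21,000xg for 90 min was quantified by TMTpro 16plex LC-MS/MS with channel sums equalised. Thermal stability relative to control samples, from duplicates, is given as log2 fold change.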

[2] = compound: Cc1cccc(CC(=O)N2CCc3c2ccc(-c2cn(C)c4ncnc(N)c24)c3F)n1
Procedure, shortened: as §1

[3] = compound: Cc1cn(-c2cc(NC(=O)c3ccc(C)c(Nc4nccc(-c5cccnc5)n4)c3)cc(C(F)(F)F)c2)cn1 [nilotinib]
Procedure, shortened: as §1

[4] = compound: Cc1nc(Nc2n[nH]c3c2CN(C(=O)N[C@H](CN(C)C)c2ccccc2)C3(C)C)c2sccc2n1
Procedure, shortened: as §1

[5] = compound: Cc1nc(Nc2ncc(C(=O)Nc3c(C)cccc3Cl)s2)cc(N2CCN(CCO)CC2)n1 [dasatinib]
Procedure, shortened: as §1

[6] = compound: Cc1ncc(-c2ccnc(Nc3ccc(S(C)(=O)=O)cc3)n2)n1C(C)C
Procedure, shortened: as §1

[7] = compound: Cn1cc(-c2ccc3c(c2)CCN3C(=O)Cc2cccc(C(F)(F)F)c2)c2c(N)ncnc21
Procedure, shortened: as §1

[8] = compound: FC(F)(F)c1ccc(/C=C/c2nc(COc3ccc(CCCCn4ccnn4)cc3)co2)cc1 [mubritinib]
Procedure, shortened: as §1

[9] = compound: NC(=O)Nc1cc(-c2cccc(F)c2)sc1C(=O)N[C@H]1CCCNC1
Procedure, shortened: as §1

[10] = compound: NC(=O)c1cnc(N[C@@H]2CCCC[C@@H]2N)nc1Nc1cccc(-n2nccn2)c1
Procedure, shortened: as §1

[11] = compound: NC1(c2ccc(-c3nc4ccn5c(=O)[nH]nc5c4cc3-c3ccccc3)cc2)CCC1
Procedure, shortened: as §1

[12] = compound: NCC(=O)Nc1ccc(-n2nc(C(F)(F)F)cc2-c2ccc3c(ccc4ccccc43)c2)cc1
Procedure, shortened: as §1

[13] = compound: Nc1ccccc1NC(=O)c1ccc(CNC(=O)OCc2cccnc2)cc1 [entinostat]
Procedure, shortened: as §1

[14] = compound: O=C(CCCCCCC(=O)Nc1ccccc1)NO [vorinostat]
Procedure, shortened: as §1

[15] = compound: O=C(CCCCCCNC(=O)c1cnc(N(c2ccccc2)c2ccccc2Cl)nc1)NO [citarinostat]
Procedure, shortened: as §1

[16] = compound: O=C(O)c1ccc2c(c1)nc(Nc1cccc(Cl)c1)c1ccncc12 [silmitasertib]
Procedure, shortened: as §1

[17] = compound: O=C1NC(=O)C(c2cnc3ccccn23)=C1c1cn2c3c(cc(F)cc13)CN(C(=O)N1CCCCC1)CC2
Procedure, shortened: as §1

[18] = compound: c1cc(OCCN2CCCCC2)cc(-c2n[nH]c3ccc(-c4nnc[nH]4)cc23)c1
Procedure, shortened: as §1

[19] = compound: Cn1cc(-c2ccc3nnc(C(F)(F)c4ccc5ncccc5c4)n3n2)cn1
Procedure, shortened: as §1

[20] = compound: Cn1cncc1[C@@](N)(c1ccc(Cl)cc1)c1ccc2c(c1)c(-c1cccc(Cl)c1)cc(=O)n2C [tipifarnib]
Procedure, shortened: as §1

Measured: log2 fold change

MKKS (UniProt Q9HB66)
inactive: [1] -0.029 | [2] -0.053 | [3] 0.042 | [4] -0.006 | [5] 0.012 | [6] -0.072 | [7] -0.031 | [8] 0.043 | [9] -0.039 | [10] 0.125 | [11] 0.002 | [12] -0.128 | [13] 0.041 | [14] -0.164 | [15] 0 | [16] 0.031 | [17] -0.177 | [18] -0.107

MMTAG2 (UniProt Q9BU76)
inactive: [1] 0.168 | [2] -0.053 | [3] 0.023 | [4] 0.088 | [5] 0.122 | [6] -0.036 | [7] -0.173 | [19] -0.155 | [20] 0.078 | [8] -0.068 | [9] 0.088 | [10] 0.087 | [11] 0.154 | [12] 0.299 | [13] -0.059 | [14] 0.116 | [15] 0.003 | [16] 0.041 | [18] -0.276

MMADHC (UniProt Q9H3L0)
inactive: [1] 0.038 | [2] 0.054 | [3] -0.068 | [4] -0.173 | [5] -0.155 | [6] 0.023 | [7] -0.138 | [19] -0.063 | [20] 0.024 | [8] -0.005 | [10] 0.035 | [11] 0.014 | [12] 0.057 | [14] 0.157 | [15] 0.141 | [16] 0.031 | [18] 0.031

MPHOSPH6 (UniProt Q99547)
inactive: [1] 0.08 | [2] -0.063 | [3] -0.062 | [4] 0.06 | [5] 0.016 | [6] 0.012 | [7] -0.07 | [19] -0.128 | [20] 0.077 | [8] -0.058 | [9] 0.023 | [10] -0.011 | [11] 0.046 | [12] -0.064 | [13] -0.001 | [14] 0.059 | [15] -0.02 | [16] 0.137 | [17] 0.062 | [18] -0.137

MPRIP isoform 2 (UniProt Q6WCQ1)
inactive: [1] -0.05 | [2] -0.072 | [3] 0.033 | [4] -0.202 | [5] -0.062 | [6] -0.011 | [7] 0.007 | [19] 0.023 | [20] 0.118 | [8] 0.036 | [9] -0.119 | [10] -0.015 | [11] 0.025 | [12] -0.088 | [13] -0.008 | [14] 0.035 | [16] 0.089 | [17] -0.081

MRAS (UniProt O14807)
inactive: [1] -0.024 | [2] -0.2 | [3] -0.001 | [4] -0.005 | [6] -0.027 | [8] -0.058 | [11] -0.067 | [14] 0.121 | [15] -0.072 | [16] -0.058 | [18] -0.188

MRPL33 (UniProt O75394)
inactive: [1] 0.317 | [3] -0.128 | [4] 0.214 | [5] 0.033 | [6] 0.024 | [7] -0.16 | [19] 0.018 | [20] 0.098 | [8] -0.009 | [9] -0.085 | [10] 0 | [11] -0.051 | [12] 0.096 | [13] 0.219 | [15] 0.031 | [16] -0.06 | [17] -0.039 | [18] -0.083

MNT (UniProt Q99583)
inactive: [1] 0.068 | [2] 0.064 | [3] 0.032 | [4] 0.087 | [6] 0.301 | [7] -0.318 | [19] 0.008 | [20] -0.195 | [8] 0.162 | [9] 0.051 | [10] -0.055 | [11] 0.03 | [12] 0.049 | [13] 0.052 | [14] -0.082 | [16] 0.218 | [17] -0.02
